Assay results taken from the supplement of paper PMC10849652.
The list shows a part of the results.

Amino acid sequences for entries named in this document (tags omitted). A change or cut given only in a name is not applied to a line headed by its entry.
UniProt Q9GZX9: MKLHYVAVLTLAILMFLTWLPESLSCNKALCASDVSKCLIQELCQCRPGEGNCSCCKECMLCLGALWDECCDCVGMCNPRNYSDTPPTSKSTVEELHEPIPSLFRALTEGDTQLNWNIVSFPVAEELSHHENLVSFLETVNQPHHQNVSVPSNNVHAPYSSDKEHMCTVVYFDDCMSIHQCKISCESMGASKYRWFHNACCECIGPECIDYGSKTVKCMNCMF
UniProt Q15819: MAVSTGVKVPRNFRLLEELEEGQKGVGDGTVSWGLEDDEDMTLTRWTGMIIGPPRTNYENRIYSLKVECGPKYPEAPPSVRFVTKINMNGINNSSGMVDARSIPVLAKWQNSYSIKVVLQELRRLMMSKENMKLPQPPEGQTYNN
UniProt Q9Y385: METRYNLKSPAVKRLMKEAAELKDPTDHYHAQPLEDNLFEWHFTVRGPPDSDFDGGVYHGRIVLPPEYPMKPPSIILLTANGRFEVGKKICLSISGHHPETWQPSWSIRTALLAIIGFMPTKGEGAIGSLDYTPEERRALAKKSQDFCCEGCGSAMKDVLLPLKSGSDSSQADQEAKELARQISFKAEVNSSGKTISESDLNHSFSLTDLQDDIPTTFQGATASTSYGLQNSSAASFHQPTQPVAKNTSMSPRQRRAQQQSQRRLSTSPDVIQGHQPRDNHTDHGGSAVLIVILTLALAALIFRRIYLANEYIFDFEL
UniProt Q9UGJ1, whole entry, looked up: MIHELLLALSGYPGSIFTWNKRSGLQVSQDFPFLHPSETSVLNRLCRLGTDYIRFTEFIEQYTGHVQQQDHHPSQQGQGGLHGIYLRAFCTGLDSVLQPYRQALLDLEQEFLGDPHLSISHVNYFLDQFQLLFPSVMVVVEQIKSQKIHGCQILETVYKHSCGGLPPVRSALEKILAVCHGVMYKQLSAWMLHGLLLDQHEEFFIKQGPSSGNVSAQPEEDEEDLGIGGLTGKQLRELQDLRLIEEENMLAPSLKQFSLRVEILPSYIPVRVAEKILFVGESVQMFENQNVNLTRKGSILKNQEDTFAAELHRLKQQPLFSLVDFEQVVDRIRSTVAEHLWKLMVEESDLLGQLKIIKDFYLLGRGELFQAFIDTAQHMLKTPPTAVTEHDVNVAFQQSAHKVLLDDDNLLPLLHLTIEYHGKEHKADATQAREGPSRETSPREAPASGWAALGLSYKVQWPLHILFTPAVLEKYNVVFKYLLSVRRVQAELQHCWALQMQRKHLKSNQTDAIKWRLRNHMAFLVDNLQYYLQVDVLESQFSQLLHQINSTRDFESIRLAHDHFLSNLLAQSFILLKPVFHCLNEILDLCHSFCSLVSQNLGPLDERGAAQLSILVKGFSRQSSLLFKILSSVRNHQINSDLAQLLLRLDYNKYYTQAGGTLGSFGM
UniProt Q5JXB2: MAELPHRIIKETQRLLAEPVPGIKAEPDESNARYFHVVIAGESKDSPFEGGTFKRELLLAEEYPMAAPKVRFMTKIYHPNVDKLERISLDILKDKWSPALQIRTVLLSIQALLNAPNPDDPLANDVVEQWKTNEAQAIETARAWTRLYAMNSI
UniProt Q9UMX0, whole entry, looked up: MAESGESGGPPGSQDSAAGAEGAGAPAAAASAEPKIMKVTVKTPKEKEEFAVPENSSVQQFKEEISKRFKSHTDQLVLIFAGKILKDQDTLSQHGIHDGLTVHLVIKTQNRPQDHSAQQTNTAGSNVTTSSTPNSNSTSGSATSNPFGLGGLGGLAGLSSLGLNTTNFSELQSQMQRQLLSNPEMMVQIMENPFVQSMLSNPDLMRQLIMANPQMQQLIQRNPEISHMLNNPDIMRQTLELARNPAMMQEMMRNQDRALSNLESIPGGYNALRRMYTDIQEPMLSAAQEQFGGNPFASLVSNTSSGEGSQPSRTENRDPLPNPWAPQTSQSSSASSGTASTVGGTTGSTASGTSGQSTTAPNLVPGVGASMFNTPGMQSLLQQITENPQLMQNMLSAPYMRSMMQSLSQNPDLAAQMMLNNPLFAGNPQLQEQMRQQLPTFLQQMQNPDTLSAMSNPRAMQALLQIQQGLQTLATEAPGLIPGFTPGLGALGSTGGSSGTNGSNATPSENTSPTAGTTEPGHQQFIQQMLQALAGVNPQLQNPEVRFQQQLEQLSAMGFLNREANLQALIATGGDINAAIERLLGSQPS
UniProt Q8WVY7: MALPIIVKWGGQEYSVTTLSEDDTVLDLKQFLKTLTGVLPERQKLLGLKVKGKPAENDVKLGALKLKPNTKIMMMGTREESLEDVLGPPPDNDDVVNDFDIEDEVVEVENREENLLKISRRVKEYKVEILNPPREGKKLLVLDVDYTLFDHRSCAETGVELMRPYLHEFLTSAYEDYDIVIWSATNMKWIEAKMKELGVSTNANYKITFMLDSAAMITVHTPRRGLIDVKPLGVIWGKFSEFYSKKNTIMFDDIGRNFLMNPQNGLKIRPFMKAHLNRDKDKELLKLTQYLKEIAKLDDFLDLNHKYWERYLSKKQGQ
UniProt P63146, whole entry, looked up: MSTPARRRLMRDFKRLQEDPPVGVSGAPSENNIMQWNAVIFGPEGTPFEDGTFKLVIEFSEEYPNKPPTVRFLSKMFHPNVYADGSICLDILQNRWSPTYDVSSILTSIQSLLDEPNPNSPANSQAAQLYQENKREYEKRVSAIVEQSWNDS
UniProt P68036, whole entry, looked up: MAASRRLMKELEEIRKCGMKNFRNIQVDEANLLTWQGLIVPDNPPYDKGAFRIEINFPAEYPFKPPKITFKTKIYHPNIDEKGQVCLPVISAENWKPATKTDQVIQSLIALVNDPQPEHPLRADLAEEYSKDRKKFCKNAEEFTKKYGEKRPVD
UniProt O14933: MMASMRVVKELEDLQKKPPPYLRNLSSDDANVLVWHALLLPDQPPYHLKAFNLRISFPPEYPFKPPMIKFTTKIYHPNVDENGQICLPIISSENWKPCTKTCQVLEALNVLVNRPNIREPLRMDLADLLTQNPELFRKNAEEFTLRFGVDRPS
UniProt P0CG48, whole entry, looked up: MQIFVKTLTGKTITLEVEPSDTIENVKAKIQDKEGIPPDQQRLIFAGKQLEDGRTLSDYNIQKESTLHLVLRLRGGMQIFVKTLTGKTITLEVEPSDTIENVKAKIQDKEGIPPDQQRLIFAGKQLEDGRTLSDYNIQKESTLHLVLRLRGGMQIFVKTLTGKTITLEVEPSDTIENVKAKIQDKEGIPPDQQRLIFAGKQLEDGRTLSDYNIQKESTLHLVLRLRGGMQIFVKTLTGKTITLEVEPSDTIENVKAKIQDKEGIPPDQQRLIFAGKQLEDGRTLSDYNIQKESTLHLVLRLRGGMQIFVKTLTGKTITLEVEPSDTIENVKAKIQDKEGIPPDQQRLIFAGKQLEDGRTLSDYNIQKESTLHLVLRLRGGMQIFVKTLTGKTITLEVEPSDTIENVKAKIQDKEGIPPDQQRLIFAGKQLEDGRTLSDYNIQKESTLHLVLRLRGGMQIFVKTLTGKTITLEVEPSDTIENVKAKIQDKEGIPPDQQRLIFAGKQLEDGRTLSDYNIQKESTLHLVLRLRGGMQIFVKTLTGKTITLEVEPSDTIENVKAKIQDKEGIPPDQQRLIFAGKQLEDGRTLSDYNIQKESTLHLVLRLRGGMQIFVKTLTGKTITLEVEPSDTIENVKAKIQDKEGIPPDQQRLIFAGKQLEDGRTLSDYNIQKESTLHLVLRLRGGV
UniProt Q9BSL1: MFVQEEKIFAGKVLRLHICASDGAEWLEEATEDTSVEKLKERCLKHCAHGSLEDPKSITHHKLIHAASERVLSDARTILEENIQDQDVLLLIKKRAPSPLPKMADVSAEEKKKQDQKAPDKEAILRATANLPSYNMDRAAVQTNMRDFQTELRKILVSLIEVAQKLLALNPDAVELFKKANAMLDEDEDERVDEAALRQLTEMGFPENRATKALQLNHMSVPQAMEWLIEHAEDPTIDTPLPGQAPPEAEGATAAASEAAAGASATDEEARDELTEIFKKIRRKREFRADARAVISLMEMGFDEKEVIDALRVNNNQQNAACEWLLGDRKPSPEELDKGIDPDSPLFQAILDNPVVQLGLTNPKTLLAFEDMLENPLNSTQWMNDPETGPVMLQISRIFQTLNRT
UniProt P62253: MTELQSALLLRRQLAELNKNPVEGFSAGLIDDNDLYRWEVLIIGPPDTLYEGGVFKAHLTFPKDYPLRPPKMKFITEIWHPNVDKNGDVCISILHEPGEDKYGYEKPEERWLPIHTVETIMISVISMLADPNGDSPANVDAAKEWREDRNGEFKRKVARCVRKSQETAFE
UniProt P61081: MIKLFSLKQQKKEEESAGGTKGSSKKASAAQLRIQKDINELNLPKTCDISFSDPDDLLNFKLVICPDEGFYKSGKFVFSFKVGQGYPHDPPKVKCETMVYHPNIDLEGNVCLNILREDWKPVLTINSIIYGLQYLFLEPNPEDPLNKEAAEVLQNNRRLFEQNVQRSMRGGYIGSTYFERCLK
UniProt P68366, whole entry, looked up: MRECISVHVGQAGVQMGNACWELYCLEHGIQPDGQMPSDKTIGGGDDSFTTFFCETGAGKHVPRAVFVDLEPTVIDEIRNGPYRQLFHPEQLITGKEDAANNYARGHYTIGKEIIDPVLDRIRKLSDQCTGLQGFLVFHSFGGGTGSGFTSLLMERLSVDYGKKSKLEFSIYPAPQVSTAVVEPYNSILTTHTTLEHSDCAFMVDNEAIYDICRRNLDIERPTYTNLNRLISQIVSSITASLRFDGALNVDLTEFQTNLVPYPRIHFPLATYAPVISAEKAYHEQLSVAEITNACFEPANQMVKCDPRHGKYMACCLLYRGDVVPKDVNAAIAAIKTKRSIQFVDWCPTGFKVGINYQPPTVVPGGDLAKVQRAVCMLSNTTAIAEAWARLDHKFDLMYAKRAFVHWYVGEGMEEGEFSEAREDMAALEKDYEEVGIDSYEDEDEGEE
UniProt Q8WVN8: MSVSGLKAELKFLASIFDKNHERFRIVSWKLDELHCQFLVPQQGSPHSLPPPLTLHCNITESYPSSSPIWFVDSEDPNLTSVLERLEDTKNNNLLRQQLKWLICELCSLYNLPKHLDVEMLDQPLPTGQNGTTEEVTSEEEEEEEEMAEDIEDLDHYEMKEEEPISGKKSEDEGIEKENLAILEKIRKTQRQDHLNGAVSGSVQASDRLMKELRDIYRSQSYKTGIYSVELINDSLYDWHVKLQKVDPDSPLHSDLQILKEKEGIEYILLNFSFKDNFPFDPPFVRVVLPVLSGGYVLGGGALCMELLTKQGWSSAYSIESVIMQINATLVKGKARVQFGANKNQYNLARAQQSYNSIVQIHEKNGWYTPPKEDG
UniProt P0DPH7, whole entry, looked up: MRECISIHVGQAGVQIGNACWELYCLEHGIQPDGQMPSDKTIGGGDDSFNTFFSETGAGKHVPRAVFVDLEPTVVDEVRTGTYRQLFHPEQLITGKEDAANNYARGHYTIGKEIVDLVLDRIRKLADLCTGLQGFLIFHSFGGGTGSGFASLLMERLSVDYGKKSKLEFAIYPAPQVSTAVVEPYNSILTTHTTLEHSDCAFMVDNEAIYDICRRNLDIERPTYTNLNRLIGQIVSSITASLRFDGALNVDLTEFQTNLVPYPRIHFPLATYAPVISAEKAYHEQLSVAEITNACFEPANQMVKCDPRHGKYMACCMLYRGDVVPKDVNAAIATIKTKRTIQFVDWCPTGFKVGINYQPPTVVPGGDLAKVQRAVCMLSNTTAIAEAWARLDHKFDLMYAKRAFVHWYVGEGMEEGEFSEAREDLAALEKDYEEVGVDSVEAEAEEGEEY
UniProt Q9BSJ2, whole entry, looked up: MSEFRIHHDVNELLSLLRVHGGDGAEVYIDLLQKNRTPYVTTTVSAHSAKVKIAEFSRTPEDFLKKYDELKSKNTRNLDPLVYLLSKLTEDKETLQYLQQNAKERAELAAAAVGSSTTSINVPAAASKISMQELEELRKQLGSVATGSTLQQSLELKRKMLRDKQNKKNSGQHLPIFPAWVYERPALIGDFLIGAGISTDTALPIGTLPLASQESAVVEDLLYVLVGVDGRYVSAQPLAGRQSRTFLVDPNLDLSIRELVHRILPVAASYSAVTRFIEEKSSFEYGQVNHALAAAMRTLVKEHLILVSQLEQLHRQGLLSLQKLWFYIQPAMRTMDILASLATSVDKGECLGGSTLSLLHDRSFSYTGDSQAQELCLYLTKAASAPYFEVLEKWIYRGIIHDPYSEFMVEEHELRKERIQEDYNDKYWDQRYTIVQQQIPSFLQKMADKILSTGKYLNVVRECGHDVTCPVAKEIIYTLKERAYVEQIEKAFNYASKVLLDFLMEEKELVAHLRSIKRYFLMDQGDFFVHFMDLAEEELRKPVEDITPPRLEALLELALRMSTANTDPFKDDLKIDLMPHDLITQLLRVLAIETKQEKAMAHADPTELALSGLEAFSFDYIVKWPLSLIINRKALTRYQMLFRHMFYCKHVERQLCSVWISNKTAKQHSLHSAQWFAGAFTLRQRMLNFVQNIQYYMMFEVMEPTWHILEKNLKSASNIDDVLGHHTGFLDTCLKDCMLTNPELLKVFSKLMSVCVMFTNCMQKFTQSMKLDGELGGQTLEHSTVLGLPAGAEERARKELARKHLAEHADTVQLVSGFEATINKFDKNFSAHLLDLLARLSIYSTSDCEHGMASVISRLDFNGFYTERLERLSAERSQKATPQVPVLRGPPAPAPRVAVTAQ

Experiments:
Assay in all cases: log2 fold change, soluble protein after heating vs DMSO (PISA); higher = thermal stabilisation; K562 lysate, 10 uM; active = over 0.2 and 3.5 SD of the protein, either way, in both replicates (recomputed)
[1] = compound: NCC(=O)Nc1ccc(-n2nc(C(F)(F)F)cc2-c2ccc3c(ccc4ccccc43)c2)cc1
Method in brief: (§1)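 Log-two fold change in thermal stability relative to solvent controls is reported from duplicates. For each sample, crude K562 extract from dounce-homogenised pellets in PBS pH 7.4 with 1 mM MgCl2, at 1 mg/mL protein, was treated with 10 μM compound for 30 min. Aliquots heated for 3 min across 48°C-58°C were pooled, brought to 0.5% NP-40 at 4°C and cleared at 21,000xg for 90 min. The supernatant was quantified by TMTpro 16plex LC-MS/MS with channel sums equalised.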

vorinostat = compound: O=C(CCCCCCC(=O)Nc1ccccc1)NO [vorinostat]
Method in brief: as §1

silmitasertib = compound: O=C(O)c1ccc2c(c1)nc(Nc1cccc(Cl)c1)c1ccncc12 [silmitasertib]
Method in brief: as §1

[2] = compound: O=C1NC(=O)C(c2cnc3ccccn23)=C1c1cn2c3c(cc(F)cc13)CN(C(=O)N1CCCCC1)CC2
Method in brief: as §1

entospletinib = compound: c1cn2cc(-c3ccc4cn[nH]c4c3)nc(Nc3ccc(N4CCOCC4)cc3)c2n1 [entospletinib]
Method in brief: as §1

Measured: log2 fold change

TWSG1 (UniProt Q9GZX9)
inactive: [1] 0.006 | vorinostat 0.085 | silmitasertib -0.037 | [2] -0.048 | entospletinib 0.09

UBE2V2 (UniProt Q15819)
inactive: [1] -0.01 | vorinostat 0.119 | silmitasertib -0.018 | [2] 0.004 | entospletinib -0.01

UBE2J1 (UniProt Q9Y385)
inactive: [1] -0.099 | vorinostat 0.042 | silmitasertib -0.016 | [2] 0.02 | entospletinib -0.027

TUBGCP4 (UniProt Q9UGJ1)
inactive: [1] -0.11 | silmitasertib 0.003 | [2] 0.02 | entospletinib 0.038
active: vorinostat -0.219

UBE2NL (UniProt Q5JXB2)
inactive: [1] -0.054 | vorinostat 0.123 | silmitasertib 0.01 | [2] 0 | entospletinib -0.034

UBQLN1 isoform 2 (UniProt Q9UMX0)
inactive: [1] 0.018 | vorinostat 0.177 | silmitasertib 0.141 | [2] 0.025 | entospletinib -0.223

UBLCP1 (UniProt Q8WVY7)
inactive: [1] -0.143 | vorinostat -0.017 | silmitasertib 0.032 | [2] -0.016 | entospletinib 0.004

UBE2B (UniProt P63146)
inactive: [1] -0.082 | vorinostat -0.1 | silmitasertib -0.025 | [2] -0.004 | entospletinib -0.028

UBQLN4 (UniProt Q9NRR5)
inactive: [1] -0.069 | vorinostat 0.02 | silmitasertib 0.002 | [2] 0.006 | entospletinib -0.098

UBE2L3 isoform 3 (UniProt P68036)
inactive: [1] 0.057 | vorinostat 0.057 | silmitasertib -0.043 | [2] 0.019 | entospletinib -0.002

UBE2L6 (UniProt O14933)
inactive: [1] -0.071 | silmitasertib 0.037 | [2] 0 | entospletinib -0.011
active: vorinostat -0.477

UBC (UniProt P0CG48)
inactive: [1] 0.035 | vorinostat 0.207 | silmitasertib -0.009 | [2] 0.063 | entospletinib -0.004

Reprinted at random: two entries already listed, in no set order.
UBE2B (UniProt P63146)
inactive: [1] -0.082 | vorinostat -0.1 | silmitasertib -0.025 | [2] -0.004 | entospletinib -0.028

UBQLN4 (UniProt Q9NRR5)
inactive: [1] -0.069 | vorinostat 0.02 | silmitasertib 0.002 | [2] 0.006 | entospletinib -0.098

(listing goes on)

UBAC1 (UniProt Q9BSL1)
inactive: [1] 0.015 | vorinostat 0.034 | silmitasertib -0.002 | [2] -0.003 | entospletinib -0.003

UBE2G1 (UniProt P62253)
inactive: [1] 0.001 | vorinostat 0.094 | silmitasertib -0.034 | [2] -0.01 | entospletinib 0.01

UBE2M (UniProt P61081)
inactive: [1] -0.012 | vorinostat 0.04 | silmitasertib 0.016 | [2] 0.023 | entospletinib 0.007

TUBB6 (UniProt K7ES63)
inactive: [1] -0.062 | vorinostat -0.414 | silmitasertib 0.013 | [2] -0.164 | entospletinib -0.11

UBQLN1 (UniProt Q9UMX0)
inactive: [1] -0.041 | vorinostat 0.133 | silmitasertib -0.045 | [2] 0.005 | entospletinib -0.043

UBE2K (UniProt D6RDM7)
inactive: [1] 0.003 | vorinostat 0.019 | silmitasertib -0.031 | entospletinib -0.079

TUBA4A (UniProt P68366)
inactive: [1] 0.066 | silmitasertib 0.077 | [2] 0.051 | entospletinib -0.045
active: vorinostat -0.736

UBE3A (UniProt Q05086)
inactive: [1] 0.018 | vorinostat -0.006 | silmitasertib 0.008 | [2] -0.001 | entospletinib 0.003

UBQLN2 (UniProt Q9UHD9)
inactive: [1] -0.065 | vorinostat 0.143 | silmitasertib -0.027 | [2] 0.015 | entospletinib -0.016

UCHL5 isoform 3 (UniProt Q9Y5K5)
inactive: [1] 0.004 | vorinostat -0.081 | silmitasertib 0 | [2] -0.009 | entospletinib -0.003

UBE2Q2 (UniProt Q8WVN8)
inactive: [1] 0.087 | vorinostat -0.143 | silmitasertib 0.172 | entospletinib -0.02

TUBA3C (UniProt P0DPH7)
active: vorinostat -0.913
inactive: [1] 0 | silmitasertib 0.017 | [2] -0.008 | entospletinib -0.007

TUBGCP2 isoform 4 (UniProt Q9BSJ2)
inactive: [1] 0.03 | silmitasertib 0.051 | [2] 0.046 | entospletinib 0.042
active: vorinostat -0.32
